This series is described as follows: peptide synthesis. Particulars: conjugation step.

GLFYG-Vip068: the conjugation yield came to 11%. In turn, GLFYG-PEG-Vip068 yielded a conjugation yield of 18%.

These data come from patent US9006150B2 (Vipergen ApS, priority 2004, dated 2015).
